# Data reported in patent publication EP4755878A1, “PHOTOCHROMIC COMPOUND, PHENOL DERIVATIVE, CURABLE COMPOSITION, OPTICAL ARTICLE, LENS, AND EYEGLASS” (TOKUYAMA CORPORATION, priority 2023, dated 2025).
# Legend:
# Conditions in all cases: A35/A23 × 100, one value per compound
# [1] = Photochromic properties of photochromic laminate (plastic lens) made by coating method; assay type: physicochemical
# Excerpt: First, the photochromic compound obtained in Example 1 above, a photoinitiator, and polymerizable compounds were mixed to obtain a curable composition.
# As the polymerizable compounds, a blend of the following radically-polymerizable monomers in combination was used.
# • Polyethylene glycol dimethacrylate (average molecular weight: 736): 42 parts by mass • Polyethylene glycol dimethacrylate (average molecular weight: 536): 12 parts by mass • Trimethylolpropane trimethacrylate: 38 parts by mass • γ-Methacryloyloxypropyltrimethoxysilane: 2 parts by mass • Glycidyl methacrylate: 1 part by mass.
# Note that in the curable composition, the photochromic compound obtained in Example 1 above was added to be 0.25 mmol taking the total amount of the radically-polymerizable monomers as 100 g. The following were used as additives.
# (stabilizer, Irganox 245): 1 part by mass Bis(1,2,2,6,6-pentamethyl-4-piperidyl) sebacate: 3 parts by mass Leveling agent from DuPont Toray Specialty Materials K.K. (L7001): 0.1 parts by mass.
# Note that the above-mentioned additives are described with blending ratios taking a total of the radically-polymerizable monomers as 100 parts by mass.
# Using this curable composition, a photochromic laminate was obtained by a lamination process described below with the polymerization described below being carried out.
# First, a thiourethane plastic lens with a center thickness of 2 mm and a refractive index of 1.60 was prepared as an optical substrate. Note that the thiourethane plastic lens had been alkaline-etched beforehand in a 10% aqueous sodium hydroxide solution at 50°C for 5 minutes, and then thoroughly washed with distilled water.
# A spin coater (1H-DX2, manufactured by MIKASA CO., LTD) was used to coat a surface of the above-mentioned plastic lens with a moisture-curable primer (product name: TR-SC-P, manufactured by Tokuyama Corporation) at a rotation speed of 70 rpm for 15 seconds, followed by at 1000 rpm for 10 seconds. Then, about 2 g of the photochromic curable composition obtained as above was spin-coated at a rotation speed of 60 rpm for 40 seconds, followed by at 600 rpm for 10 to 20 seconds so as to achieve a photochromic coating layer with a film thickness of 40 µm.
# The lens having the surface coated with the photochromic curable composition (photochromic coating layer) was irradiated with light for 90 seconds in a nitrogen gas atmosphere using a metal halide lamp with an output of 200 mW/cm^2 to cure the coating film. The coating was then further heated at 110°C for 1 hour to produce a photochromic laminate with a photochromic layer.
# Photochromic laminates were produced using the photochromic compounds obtained in Examples 2 to 19 in the same manner as in Example 20.
# Photochromic laminates were obtained in the same manner as in Example 20 using photochromic compounds represented by the following formulas (A) to (F). [drawing 143] [drawing 144] [drawing 145] [drawing 146] [drawing 147] [drawing 148] [drawing 149] [drawing 150]
# The resulting photochromic laminates were evaluated by the methods described below.
# Table 3 summarizes the results of Examples 20, 32, and 34, and Comparative Examples 1 to 6, and Table 4 summarizes the results of Examples 21 to 31, 33, and 35 to 38. The relationship between the fading half-life at 23°C and the color development ratio at the higher temperature of the photochromic laminates according to Examples and Comparative Examples are shown in a graph in FIG. 1.
# Photochromic laminates were formed using the photochromic compound obtained in Examples 61 to 71 in the same manner as in Example 20.
# [2] = Photochromic properties of photochromic cured product made by kneading method; assay type: physicochemical
# Excerpt: First, the photochromic compound obtained in Example 1, additives, and polymerizable compounds were mixed to obtain a curable composition. As the polymerizable compounds, a blend of the following polymerizable monomers in combination was used. • 1,3-Bis(isocyanatomethyl)cyclohexane: 36.7 parts by mass Pentaerythritol tetrakis(3-mercaptopropionate): 39.4 parts by mass • Polyoxyethylene polyoxypropylene lauryl ether (WONDERSURF 140 from Aoki Oil Industrial Co., Ltd.): 17.4 parts by mass 1-Decanethiol: 2.8 parts by mass • RX-1 prepared according to the method described in Patent Document 12: 3.8 parts by mass Note that in the curable composition, the photochromic compound was added to be 0.106 mmol taking the total amount of the polymerizable monomers as 100 g.
# The following additives were used. Dimethyltin dichloride: 0.05 parts by mass • Irganox 245 from BASF Japan Ltd.: 0.1 parts by mass • 2-Ethylhexyl 4-methoxycinnamate: 0.6 parts by mass
# The prepared curable composition was sufficiently degassed, and then injected into a glass mold provided with a gap of 1 mm, and the curable composition was polymerized via casting polymerization. […] After the polymerization, the cured product was removed from the glass mold, to obtain photochromic cured product having a thickness of 1 mm. The resulting photochromic cured product was evaluated in the same manner as in Example 23.
# (Examples 51 to 60, and Comparative Examples 11 to 14) Photochromic cured products were formed using the photochromic compound shown in Table 6 in the same manner as in Example 50.
# [3] = Photochromic properties of photochromic layer (binder sheet) made by binder method
Compound,Color development ratio at high temperature [1],Color development ratio at high temperature [2],Color development ratio at high temperature [3]
CCCOc1ccc(C2(c3ccc(OC)cc3)C=Cc3c4c(c5cc6c(cc5c3O2)OC(C)(C)S6)-c2ccc(N3CCCc5ccccc53)cc2C4(CCCOC)CCCOC)cc1 (centres unmarked) [Formula (7-4)],69%,70%,67%
"COc1ccc(C2(c3ccc(OC)cc3)C=Cc3c4c(c5ccc(OC)cc5c3O2)-c2ccc(Oc3ccccc3)cc2C4(C)C)cc1 [Formula(E), reference compound]",65%,,
COc1ccc(C2(c3ccc(OC)cc3)C=Cc3c4c(c5ccc(OC)cc5c3O2)-c2ccc(N(C)c3ccccc3)cc2C4(C)C)cc1 [Formula (1-7)],76%,77%,74%
CCCCOCCC1(CCOCCCC)c2cc(N(c3ccccc3)c3ccccc3)ccc2-c2c1c1c(c3cc(OC)c(N(C)c4ccc(C(F)(F)F)cc4)cc23)OC(c2ccc(OC)cc2)(c2ccc(OCCC)cc2)C=C1 (centres unmarked) [Formula (65-2)],67%,,
"CCCCOc1ccc(C2(c3ccc(OCCCC)cc3)C=Cc3c4c(c5ccc(OC)cc5c3O2)-c2ccc(C)cc2C4(C)C)cc1 [Formula (B), reference compound]",68%,70%,68%
CCC1(CC)c2cc(N(C)c3ccccc3)ccc2-c2c1c1c(c3cc(OC)c(-c4ccc(OC)cc4OC)cc23)OC(c2ccc(OC)cc2)(c2ccc(N3CCOCC3)cc2)C=C1 (centres unmarked) [Formula (67-2)],71%,,
COCCCCC1(CCCCOC)c2cc(N(C)c3ccccc3)ccc2-c2c1c1c(c3cc(OC)c(OC)cc23)OC(c2ccc(OC)cc2)(c2ccc(OC)cc2)C=C1 [Formula (2-7)],75%,77%,72%
"COc1ccc(C2(c3ccc(OC)cc3)C=Cc3c4c(c5ccc(OC)cc5c3O2)-c2ccc(OC)cc2C4(C)C)cc1 [Formula (C), reference compound]",71%,76%,71%
COCC1(COC)c2cc(N(C)c3ccccc3)ccc2-c2c1c1c(c3ccccc23)OC(c2ccc(OC)cc2)(c2ccc(OC)c(F)c2)C=C1 (centres unmarked) [Formula (16-3)],68%,71%,68%
COc1ccc(C2(c3ccc(N4CCOCC4)cc3)C=Cc3c4c(c5cc(Sc6c(C)cccc6C)c(OC)cc5c3O2)-c2ccc(N3CCOc5cc(F)ccc53)cc2C42CC(C)(C)CC(C)(C)C2)cc1 (centres unmarked) [Formula (11-4)],59%,,
CCCCOCCC1(CCOCCCC)c2cc(N(c3ccccc3)c3ccc(C)cc3)ccc2-c2c1c1c(c3cc(OC)c(OC)cc23)OC(c2ccc(OC)cc2)(c2ccc(N3CCOCC3)cc2)C=C1 (centres unmarked) [Formula (68-2)],65%,,
CCCOc1ccc(C2(c3ccc(OCCC)cc3)C=Cc3c4c(c5cc(N(C)c6ccccc6)c(OC)cc5c3O2)-c2ccc(N(C)c3ccccc3)cc2C4(CCC)CCC)cc1 [Formula (61-4)],75%,,
CCCOc1ccc(C2(c3ccc(OCCC)cc3)C=Cc3c4c(c5ccc(-c6ccc(OC)cc6OC)cc5c3O2)-c2ccc(N(C)c3ccc(F)cc3)cc2C4(CC)CC)cc1 [Formula (5-4)],75%,,
CCCCCCOc1ccc(C2(c3ccc(OCCCCCC)cc3)C=Cc3c4c(c5ccc(OC(F)(F)F)cc5c3O2)-c2ccc(N(C)c3ccc(C(F)(F)F)cc3)cc2C42CCC(CC)(CC)CC2)cc1 [Formula (6-3)],59%,,
CCCOc1ccc(C2(c3ccc(OC)cc3)C=Cc3c4c(c5cc(C)c(OC)cc5c3O2)-c2ccc(N3CCSc5ccccc53)cc2C4(CCC)CCC)cc1 (centres unmarked) [Formula (9-2)],73%,74%,70%
COc1ccc2c3c(c4c(c2c1)OC(c1ccc(F)cc1)(c1ccc(N2CCOCC2)cc1)C=C4)C(CCC(F)(F)F)(CCC(F)(F)F)c1cc(N(C)c2ccc(C)cc2)ccc1-3 (centres unmarked) [Formula (14-3)],71%,,
CCCC1(CCC)c2cc(N3CCCc4ccccc43)ccc2-c2c1c1c(c3cc(OC)ccc23)OC(c2ccc(OC)cc2)(c2ccc(OCCCO)cc2)C=C1 (centres unmarked) [Formula (17-3)],73%,,
"COc1ccc(C2(c3ccc(OC)cc3)C=Cc3c4c(c5ccc(OC)cc5c3O2)-c2ccc(OC(F)(F)F)cc2C4(C)C)cc1 [Formula(F), reference compound]",60%,,
COCCCC1(CCCOC)c2cc(N(c3ccccc3)c3ccccc3)ccc2-c2c1c1c(c3cc(OC)c(N4CCOCC4)cc23)OC(c2ccc(C)cc2)(c2ccc(N(C)c3ccccc3)cc2)C=C1 (centres unmarked) [Formula (69-2)],75%,,
CCCC1(CCC)c2cc(N(C)c3ccccc3)ccc2-c2c1c1c(c3cc(OC)c(-c4ccc(N5CC(C)OC(C)C5)cc4)cc23)OC(c2ccc(N3CCOCC3)cc2)(c2ccc(OC)c(OC)c2)C=C1 (centres unmarked) [Formula (71-5)],82%,,
CCCCCCC1(CCCCCC)c2cc(N(c3ccccc3)c3ccccc3)ccc2-c2c1c1c(c3cc(OC)c(-c4ccccc4N4CCOCC4)cc23)OC(c2ccc(OC)cc2)(c2ccc(OC)c(F)c2)C=C1 (centres unmarked) [Formula (70-4)],81%,,
CCCCCC1(CCCCC)c2cc(N3CCOc4ccccc43)ccc2-c2c1c1c(c3cc(OC)c(-c4ccc(N5CCOc6ccccc65)cc4)cc23)OC(c2ccc(OC)cc2)(c2ccc(OC)cc2)C=C1 [Formula (66-5)],80%,,
COCCOCCOCCC1(CCOCCOCCOC)c2cc(N(c3ccccc3)c3ccccc3)ccc2-c2c1c1c(c3cc(OC)c(-c4c(OC)cc(OC)cc4OC)cc23)OC(c2ccc(OC)cc2)(c2ccc(OC)cc2)C=C1 [Formula (62-5)],73%,,
CCC1(CC)c2cc(N3CCOc4ccccc43)ccc2-c2c1c1c(c3cc(OC)ccc23)OC(c2ccc(OCCOC(=O)CCCCCCCCC(=O)OCCOc3ccc(C4(c5ccc(N6CCOCC6)cc5)C=Cc5c6c(c7ccc(OC)cc7c5O4)-c4ccc(N5CCOc7ccccc75)cc4C6(CC)CC)cc3)cc2)(c2ccc(N3CCOCC3)cc2)C=C1 (centres unmarked) [Formula (19-3)],64%,,
CCCCOc1ccc(C2(c3ccc(OC)cc3)C=Cc3c4c(c5cc(-c6ccc(C(F)(F)F)cc6)c(OC)cc5c3O2)-c2ccc(N(C)c3ccccc3)cc2C4(CCC)CCC)cc1 (centres unmarked) [Formula (63-2)],70%,,
CCCCCCOc1ccc(C2(c3ccc(OCCCCCC)cc3)C=Cc3c4c(c5cc(N6CCC(C(F)(F)F)CC6)c(OC)cc5c3O2)-c2ccc(N(c3ccccc3)c3ccccc3)cc2C42CCC3(CCCCC3)CC2)cc1 [Formula (64-3)],71%,,
COCCN(c1ccccc1)c1ccc2c(c1)C(CCOC)(CCOC)c1c3c(c4cc(C)c(N5CCOCC5)cc4c1-2)OC(c1ccc(OC)cc1)(c1ccc(OC)cc1)C=C3 [Formula (10-3)],67%,,
